Test system: IL-6
Test: ELISA of IL-6 in plasma of rats with ischemia-reperfusion injury
Format: in vivo, rat
Details: 28 days
Experimental: The levels of the inflammatory cytokines, interleukin (IL)-1β and IL-6, were determined in the plasma of control rats and rats with ischemia-reperfusion injury at 2 days (FIG. 4) and 28 days (FIG. 5) post-injury using ELISA kits according to the instructions of the vendor (Pierce ThermoFisher).
The levels of the inflammatory cytokines, IL-1β and IL-6, were determined in the plasma of sham control rats and rats with ischemia-reperfusion injury at 28 days post-injury (FIG. 5) using ELISA kits as described in Example 2 above.

B1: Gal-3C: N-terminally truncated form of full length galectin-3, lacking the amino-terminal domain but retaining carbohydrate binding ability; 143 carboxy-terminal residues, SEQ ID NO: 3 (protein)
chain: GAPAGPLIVPYNLPLPGGVVPRMLITILGTVKPNANRIALDFQRGNDVAFHFNPRFNENNRRVIVCNTKLDNNWGREERQSVFPFESGKPFKIQVLVEPDHFKVAVNDAHLLQYNHRVKKLNEISKLGISGDIDITSASYTMI
IL-6 plasma level vs delayed PBS controls (delayed window, 600 μg/d): did not have a significant effect
IL-6 plasma level vs PBS-only controls (early window, 200 or 600 μg/day): significantly reduced
